# Percent effect of library compounds

From ChEMBL document CHEMBL3988442, “University of Dundee, Small-Polar-MMV Screening Library” (2021).

T. brucei: 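Whole-parasite assay of Trypanosoma brucei over 72 hours; the read-out is not stated. Concentration: 30 µM. The record gives no direction; compounds that gave an IC50 in retests scored well above the rest, so higher reads as stronger inhibition. Values scatter widely below zero; nearly all retest evidence comes from the higher of the two concentrations used. Size under these conditions: about 64,000 compounds, about 940 of them at 50% or above in at least one test.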
Toxoplasma: 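Assay of Toxoplasma gondii numbers, read through their beta-galactosidase reporter with a colour substrate. Tested at 10 µM. The record gives no direction; the compounds picked for IC50 retests had high values, so higher reads as fewer parasites. Size under these conditions: about 67,000 compounds, about 260 of them at 50% or above in at least one test.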

Results are given as percent effect.
How 0% and 100% were set is not recorded. Most values in the screen are low, and negative values occur.
This is an unselected part of the compounds tested.
A dash means the value is not listed here; it may have been measured.

| # | structure | T. brucei | Toxoplasma |
|---|---|---|---|
| 1 | `N#Cc1ccc(OC2CCN(C(=O)c3ccc4c(c3)OCO4)CC2)nc1` | -10.97 | 2.627 |
| 2 | `CCc1ncc(C(=O)c2ccc(OC)cc2)n1C` | -63.64 | -0.6627 |
| 3 | `O=C(Cn1cccnc1=O)NC(Cc1ccsc1)c1cccnc1` (configuration not stated) | -5.107 | -0.8756 |
| 4 | `CCn1cc(CN2CCCC(COc3ccccc3F)C2)cn1` (configuration not stated) | -38.57 | 4.054 |
| 5 | `CCN1CCCC1CN(Cc1ccoc1)CC1CCN(CCOC)CC1` (configuration not stated) | -18.83 | -41.34 |
| 6 | `O=C(NCc1nncn1-c1ccccc1)C1CCCC1` | -23.98 | 20.28 |
| 7 | `CCOCc1ccc(NC(=O)NC2CCCn3nc(CC)nc32)cc1` (configuration not stated) | -42.11 | -3.842 |
| 8 | `Cc1cc(NC(=O)[C@H]2CCCCN2C(=O)OC(C)(C)C)no1` | 0.7187 | 6.229 |
| 9 | `Cc1ccn(-c2ccc(N3CCCN(Cc4ccccc4)CC3)nn2)n1` | -2.752 | -5.907 |
| 10 | `CCS(=O)(=O)N1CCC2(CC1)CC(COC)N(c1ncccn1)C2.O=C(O)C(F)(F)F` (configuration not stated) | 8.93 | 7.211 |
| 11 | `CCN(CC(C)C#N)C(=O)CNc1ccc(C(N)=O)c(C)c1` (configuration not stated) | -27.65 | -0.363 |
| 12 | `Cc1nc(N2CCC(C(O)c3nccn3C)CC2)c2nc(C)oc2n1` (configuration not stated) | -10.59 | -11.88 |
| 13 | `O=C(O)C(F)(F)F.O=C(O)C(F)(F)F.[H][C@]12CC(=O)N(Cc3cccc(C)n3)[C@@]1([H])CCN2Cc1nccs1` | -62.2 | -20.94 |
| 14 | `O=C(Cc1ccc2c(c1)CCC2)N1CCCC(n2cccn2)C1` (configuration not stated) | 14.87 | 17.14 |
| 15 | `CSc1ncccc1C(=O)N1CCCC1c1ccc(C(=O)N(C)C)s1` (configuration not stated) | -0.6877 | -13.9 |
| 16 | `O=C1CC(c2cccs2)Cc2[nH]c(=O)ccc21` (configuration not stated) | -45.41 | 3.508 |
| 17 | `Cn1c(Cn2cccn2)nnc1C1CCCN(c2ccncc2F)C1` (configuration not stated) | -2.97 | -8.762 |
| 18 | `Cc1cccc(C(=O)N2CCC(Cc3cnc4[nH]ccc4c3)CC2)n1` | 40.92 | -9.741 |
| 19 | `Cc1nc2c(c(NCc3ccc(-c4ccccn4)s3)n1)CCNCC2` | 42.43 | 6.379 |
| 20 | `O=S(=O)(CCN1CCc2c(ncn2C2CC2)C1)c1ccccc1` | -13.43 | -24.34 |
| 21 | `COc1ccccc1N1CCN(C(=O)NC(C)c2nncn2C)CC1` (configuration not stated) | 5.734 | -5.643 |
| 22 | `[H][C@@]12CCN(C(=O)c3cc(C(C)=O)c(C)[nH]c3=O)C[C@@]([H])(CC1)N2C` | -37.4 | 1.747 |
| 23 | `Cc1ccccc1C(=O)NC[C@@H]1CCN(C(=O)c2cscn2)C[C@H]1O` | -76.98 | -9.918 |
| 24 | `Fc1ccc(CC2CCN(Cc3cscn3)CC2)cc1` | -13.24 | 11.09 |
| 25 | `CC(C)(C)OC(=O)NC1(c2noc(-c3ccco3)n2)CCC1` | -7.164 | -2.881 |
| 26 | `CCC[C@]12CN3C[C@](CCC)(CN(C1)C3c1[nH]c(=O)[nH]c(=O)c1C)C2=O` (some centres not stated) | -52.93 | 22.29 |
| 27 | `O=C(c1cccc(F)c1)N1C[C@@H](CN2CCCCC2)[C@@H](CO)C1` | -3.296 | 2.813 |
| 28 | `CCCN(C(=O)c1cnc(C)cn1)c1nc2c(s1)CCc1c-2cnn1C` | 29.33 | 12.55 |
| 29 | `Cn1ccnc1-c1cccc(NC(=O)NCCCN2CCOCC2)c1` | -3.671 | -4.568 |
| 30 | `Cc1oc(-c2cccc(F)c2F)nc1CN(CCO)C(C)C` | 7.038 | 17.12 |
| 31 | `CN(C)C(=O)C1CN(Cc2cscn2)CCN(S(C)(=O)=O)C1` (configuration not stated) | -2.851 | 21.08 |
| 32 | `NC(=O)CN1CCCC(c2nccnc2Oc2cccc(F)c2)C1` (configuration not stated) | 13.18 | 26.96 |
| 33 | `CC(=O)Nc1ccc(CNC2CCCSC2)cc1` (configuration not stated) | -92.47 | -0.9709 |
| 34 | `CCC(NC(=O)CCCN1CCCCC1)c1cn2cccnc2n1` (configuration not stated) | -28.29 | -5.868 |
| 35 | `CCn1c(C)nnc1CN(C)C1CCN(CCc2cccs2)C1` (configuration not stated) | -30.47 | 15.35 |
| 36 | `CCCn1cc(C(=O)NC(CC(=O)O)c2ccco2)c(C)n1` (configuration not stated) | - | 4.99 |
| 37 | `CNC(=O)c1cc2c(nc1N(C)C)CCN(c1ncc(C)cn1)CC2.O=C(O)C(F)(F)F` | -15.78 | -7.798 |
| 38 | `COc1cccc(OCC(=O)N(C)c2cccnc2N(C)C)c1` | -10.7 | 7.33 |
| 39 | `CCCC(C)C(=O)N1CCC(c2cc(N3CCOCC3)nc(C)n2)CC1` (configuration not stated) | -12.97 | -0.2249 |
| 40 | `Cc1ccnc(C2CCN(CCCOc3ccccc3F)C2)n1` (configuration not stated) | -15.44 | 6.843 |
| 41 | `Cc1ccsc1C(=O)Nc1ccc(N2CCC(O)CC2)c(C#N)c1` | -27.44 | -0.2528 |
| 42 | `O=C(NCCCn1cccn1)C1CCC(=O)N(Cc2ccccc2F)C1` (configuration not stated) | -11.63 | 14.52 |
| 43 | `Cc1nc(N)ncc1C(=O)N1CCCC1(C)C(=O)N(C)C` (configuration not stated) | -14.13 | -2.794 |
| 44 | `COc1ccccc1[C@@H]1CN(CC(=O)N2CCCCC2)C[C@H]1C(=O)O` | -19.12 | -14.01 |
| 45 | `CN1CCN(C(=O)C2CCN(c3cccnn3)C2)CC1` (configuration not stated) | 1.766 | -31.83 |
| 46 | `CSc1cccc(NC(=O)CCC(=O)Nc2nccs2)c1` | -50.33 | 12.33 |
| 47 | `N#Cc1ccccc1OCCN1CCCC1Cn1cccn1` (configuration not stated) | 2.621 | -2.24 |

3 of the entries, repeated:

- [H][C@@]12CCN(C(=O)c3cc(C(C)=O)c(C)[nH]c3=O)C[C@@]([H])(CC1)N2C : T. brucei: -37.4%; Toxoplasma: 1.747%
- O=C(NCc1nncn1-c1ccccc1)C1CCCC1 : T. brucei: -23.98%; Toxoplasma: 20.28%
- Cc1ccccc1C(=O)NC[C@@H]1CCN(C(=O)c2cscn2)C[C@H]1O : T. brucei: -76.98%; Toxoplasma: -9.918%